Results from PMC13249146.
No constants are given. Whether binding was seen depends on the method and setting. In cells and extracts the contact can be indirect. Some entries that bind do so weakly or less than the wild type.

Protein sequences, listed by entry. Tags and fused reporters are not part of them.
UniProt Q13535: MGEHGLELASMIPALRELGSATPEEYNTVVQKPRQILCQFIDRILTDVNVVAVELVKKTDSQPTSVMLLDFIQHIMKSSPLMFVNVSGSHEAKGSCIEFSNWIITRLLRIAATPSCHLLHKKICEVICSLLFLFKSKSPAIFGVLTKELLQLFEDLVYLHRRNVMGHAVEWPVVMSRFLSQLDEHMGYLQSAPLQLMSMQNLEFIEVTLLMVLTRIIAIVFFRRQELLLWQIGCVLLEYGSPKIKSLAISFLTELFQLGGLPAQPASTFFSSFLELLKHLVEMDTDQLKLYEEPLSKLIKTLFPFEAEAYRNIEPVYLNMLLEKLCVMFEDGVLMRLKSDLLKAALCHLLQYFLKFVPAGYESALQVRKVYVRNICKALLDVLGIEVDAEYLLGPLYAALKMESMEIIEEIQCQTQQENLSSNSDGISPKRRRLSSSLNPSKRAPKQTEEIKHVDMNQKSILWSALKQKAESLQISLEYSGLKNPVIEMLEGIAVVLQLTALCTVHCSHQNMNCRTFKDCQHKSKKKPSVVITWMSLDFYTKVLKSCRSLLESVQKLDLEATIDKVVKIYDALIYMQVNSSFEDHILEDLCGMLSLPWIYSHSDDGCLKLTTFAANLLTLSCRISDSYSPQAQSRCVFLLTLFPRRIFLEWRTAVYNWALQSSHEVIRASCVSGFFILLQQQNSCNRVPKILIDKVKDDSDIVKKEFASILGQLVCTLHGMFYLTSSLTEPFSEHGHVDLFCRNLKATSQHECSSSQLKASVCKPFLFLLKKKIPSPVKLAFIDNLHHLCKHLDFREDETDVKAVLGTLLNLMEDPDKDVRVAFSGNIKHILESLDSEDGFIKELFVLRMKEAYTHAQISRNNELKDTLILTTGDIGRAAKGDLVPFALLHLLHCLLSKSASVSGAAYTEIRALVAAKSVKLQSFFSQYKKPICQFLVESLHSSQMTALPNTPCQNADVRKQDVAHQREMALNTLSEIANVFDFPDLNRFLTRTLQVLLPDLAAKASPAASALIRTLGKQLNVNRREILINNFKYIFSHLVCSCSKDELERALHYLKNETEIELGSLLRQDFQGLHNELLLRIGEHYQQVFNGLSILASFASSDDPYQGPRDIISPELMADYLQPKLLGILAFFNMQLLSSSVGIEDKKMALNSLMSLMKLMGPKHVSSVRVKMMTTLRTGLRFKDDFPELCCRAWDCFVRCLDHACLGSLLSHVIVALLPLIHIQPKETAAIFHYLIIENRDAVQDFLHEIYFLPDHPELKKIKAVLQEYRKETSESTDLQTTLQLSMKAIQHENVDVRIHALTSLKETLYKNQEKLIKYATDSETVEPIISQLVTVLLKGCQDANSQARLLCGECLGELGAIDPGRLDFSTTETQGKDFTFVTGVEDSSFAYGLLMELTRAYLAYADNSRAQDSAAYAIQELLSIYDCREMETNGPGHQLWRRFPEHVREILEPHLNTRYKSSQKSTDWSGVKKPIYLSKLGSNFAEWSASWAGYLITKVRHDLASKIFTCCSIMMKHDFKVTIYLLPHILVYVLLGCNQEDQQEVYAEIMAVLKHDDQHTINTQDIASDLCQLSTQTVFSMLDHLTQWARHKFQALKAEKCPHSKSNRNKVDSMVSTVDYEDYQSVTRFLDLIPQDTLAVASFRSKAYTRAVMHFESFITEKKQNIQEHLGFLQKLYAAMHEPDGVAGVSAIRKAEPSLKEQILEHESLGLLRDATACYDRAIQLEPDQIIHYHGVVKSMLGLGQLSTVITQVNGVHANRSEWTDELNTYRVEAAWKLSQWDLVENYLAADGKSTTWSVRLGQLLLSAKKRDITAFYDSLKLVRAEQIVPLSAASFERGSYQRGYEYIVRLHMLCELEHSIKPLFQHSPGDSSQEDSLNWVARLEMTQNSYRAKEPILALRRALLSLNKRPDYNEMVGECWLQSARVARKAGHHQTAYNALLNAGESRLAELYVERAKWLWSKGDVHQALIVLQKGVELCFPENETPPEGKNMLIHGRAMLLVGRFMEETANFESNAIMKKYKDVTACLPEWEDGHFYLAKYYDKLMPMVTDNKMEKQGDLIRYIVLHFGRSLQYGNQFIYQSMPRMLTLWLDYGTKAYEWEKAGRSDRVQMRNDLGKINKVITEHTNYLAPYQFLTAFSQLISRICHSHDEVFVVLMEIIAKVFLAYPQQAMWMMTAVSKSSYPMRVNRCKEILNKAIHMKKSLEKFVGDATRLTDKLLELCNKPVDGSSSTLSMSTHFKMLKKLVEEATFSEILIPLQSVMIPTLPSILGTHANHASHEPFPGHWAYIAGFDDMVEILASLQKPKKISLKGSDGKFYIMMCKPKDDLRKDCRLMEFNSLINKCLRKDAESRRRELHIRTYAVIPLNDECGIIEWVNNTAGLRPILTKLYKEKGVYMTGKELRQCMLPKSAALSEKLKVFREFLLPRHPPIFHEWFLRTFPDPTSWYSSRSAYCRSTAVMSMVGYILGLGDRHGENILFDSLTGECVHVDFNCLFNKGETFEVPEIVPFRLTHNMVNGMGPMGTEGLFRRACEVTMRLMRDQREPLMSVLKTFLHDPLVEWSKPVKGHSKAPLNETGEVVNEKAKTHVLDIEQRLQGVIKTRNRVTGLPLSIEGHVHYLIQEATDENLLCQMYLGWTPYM

How the values were obtained:
[1] = target: T1, tBid, truncated C-terminal fragment of Bid (human (endogenous in Mia PaCa-2, G3K, G3K-R, PANC-1)) (UniProt P55957); test: proximity ligation; Duolink PLA with ATR (rabbit) and BID (mouse) antibodies on cultured cells fixed with 4 % PFA and permeabilized with 0.5 % Triton, mitochondria labelled with mtHSP70 antibody; G3K, G3K-R and Mia PaCa-2 cells with or without LB-100; PANC-1 cells with gemcitabine or FOLFIRINOX, with or without LB-100
T1 sequence: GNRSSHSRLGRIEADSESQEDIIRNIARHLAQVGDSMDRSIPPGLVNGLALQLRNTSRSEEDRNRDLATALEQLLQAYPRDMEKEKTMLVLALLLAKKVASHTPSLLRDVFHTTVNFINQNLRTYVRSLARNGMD

[2] = target: T1, tBid, truncated C-terminal fragment of Bid (human (endogenous in Mia PaCa-2, G3K, G3K-R, PANC-1)); test: proximity ligation; Duolink PLA as in a1, parental Mia PaCa-2 cells
[3] = target: T1, tBid, truncated C-terminal fragment of Bid (human (endogenous in Mia PaCa-2, G3K, G3K-R, PANC-1)); test: co-IP; immunoprecipitation from the cytoplasm fraction of Mia PaCa-2, G3K and G3K-R cells, Western blot; which protein was precipitated is not told
[4] = target: T1, tBid, truncated C-terminal fragment of Bid (human (endogenous in Mia PaCa-2, G3K, G3K-R, PANC-1)); test: proximity ligation; PLA for ATR-tBid foci on G3K orthotopic xenograft tumour samples, mice with or without LB-100

Substance: ataxia telangiectasia and Rad3 related (ATR), mitochondria-targeted prolyl cis-isomeric form (mtATR) (from UniProt Q13535 1-2644)
- binding [1]: binds
- binding [2]: binds weakly
- binding [3]: binds
- binding [4]: binds
